Measured values published in PubChem BioAssay AID298 (DTP/NCI, 2004).
The list does not hold the whole screen: it gathers tests that were run many times, whatever their T/C, doses with no T/C, and many T/C values between a quarter and a half above the control. Other doses and runs of a compound stand elsewhere. T/C is the treated group as % of the vehicle group. Schedules are NCI's codes, read here as Q, the interval in days (D) or hours (H), X, the number of doses. Some doses have a count of surviving animals in place of a T/C: the source files T/C as zero there, which appears to mark a toxic dose or a test without result, not a measured value. Counts of survivors are from the toxicity check (mostly the fifth day) where no day follows; animals may have died later. Some doses were run more than once; their values stand side by side, smallest first.

Test system: MX-1 breast xenograft, intrarenal, nude mice, tumor weight
Experiment: NCI In Vivo Anticancer Drug Screen. Data for tumor model Human Mammary Carcinoma MX-1 Xenograft (intrarenal inoculation) in NU/NU BALB/C (nude) mice
Details: T/C endpoint: mean tumor weight change, higher T/C = larger tumour; for T/C: evaluated on day 11
Procedure, shortened: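 Efficacy in vivo: tumor measurement or survival of treated animals divided by that of vehicle-dosed controls.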

[1] = dose: 1000.0 mg/kg/injection, schedule: Q04DX003 (ip), vehicle: saline with Tween-80
[2] = dose: 2400.0 mg/kg/injection, schedule: Q04DX003 (sc), vehicle: saline with Tween-80
[3] = dose: 300.0 mg/kg/injection, schedule: Q04DX003 (ip), vehicle: water

## C[n+]1c(-c2ccc(NC(=O)c3ccc(C(=O)Nc4ccc(-c5cn6ccccc6[n+]5C)cc4)cc3)cc2)cn2ccccc21
dose: 25.0 mg/kg/injection, schedule: Q04DX003 (ip), vehicle: saline with Tween-80
  survivor count: 0 of 6 on day 11
dose: 50.0 mg/kg/injection, schedule: Q04DX003 (ip), vehicle: saline with Tween-80
  survivor count: 1 of 6 on day 11
dose: 100.0 mg/kg/injection, schedule: Q04DX003 (ip), vehicle: saline with Tween-80
  survivor count: 0 of 6 on day 11
dose: 200.0 mg/kg/injection, schedule: Q04DX003 (ip), vehicle: saline with Tween-80
  survivor count: 0 of 6 on day 11

## BrCCC1(CCBr)CCCCC1
dose: 150.0 mg/kg/injection, schedule: Q04DX003 (sc), vehicle: distilled water + alcohol
  T/C: 133 % of control
dose: 300.0 mg/kg/injection, schedule: Q04DX003 (sc), vehicle: distilled water + alcohol
  T/C: 131 % of control
dose: 600.0 mg/kg/injection, schedule: Q04DX003 (sc), vehicle: distilled water + alcohol
  T/C: 127 % of control
dose: 1200.0 mg/kg/injection, schedule: Q04DX003 (sc), vehicle: distilled water + alcohol
  T/C: 135 % of control

## COc1cccc2c1C(=O)c1c(O)c3c(c(O)c1C2=O)CC(O)(C(=O)CO)CC3OC1CC(N)C(O)C(C)O1 (stereo not drawn)
dose: 100.0 mg/kg/injection, schedule: Q01DX010 (sc), vehicle: saline
  survivor count: 2 of 6 on day 11
dose: 200.0 mg/kg/injection, schedule: Q01DX010 (sc), vehicle: saline
  survivor count: 0 of 6 on day 11

## Cc1cc2c(=O)cc(-c3ccccc3)oc2c(C(=O)O)c1C
dose: 500.0 mg/kg/injection, schedule: Q04DX003 (ip), vehicle: saline with Tween-80
  survivor count: 1 of 6 on day 11
[1]
  survivor count: 0 of 6 on day 11

## C=COC(=O)C(Cc1ccccc1)NC(=O)OCc1ccccc1 (stereo not drawn)
[2]
  survivor count: 1 of 6 on day 11

## C=CC(C)NC(=S)NNC(=S)NC (stereo not drawn)
dose: 2400.0 mg/kg/injection, schedule: Q04DX003 (sc), vehicle: saline + alcohol
  survivor count: 2 of 6 on day 11

## CC1OC2CC(O)C1(O)C1=C2C(O)=C(C(N)=O)C(=N)C1=O (stereo not drawn)
dose: 5.0 mg/kg/injection, schedule: Q04DX003 (ip), vehicle: saline
  survivor count: 2 of 5 on day 11

## CC(C)CCC(=O)c1ccoc1
dose: 6.0 mg/kg/injection, schedule: Q01DX010 (ip), vehicle: saline with Tween-80
  survivor count: 0 of 6 on day 11

## [Cl][Pt][Cl].[NH-]C(CO)C(=O)O (stereo not drawn)
dose: 150.0 mg/kg/injection, schedule: Q04DX003 (ip), vehicle: water
  survivor count: 3 of 6 on day 11
[3]
  survivor count: 0 of 6 on day 11

## NC(=S=O)C(N)=S=O
[1]
  survivor count: 3 of 6 on day 11

## O=C(O)c1ccc(C(=O)O)c(C(=O)O)c1.[NH-]C1CCCCC1[NH-].[Pt+2]
dose: 25.0 mg/kg/injection, schedule: Q01DX010 (sc), vehicle: sodium bicarbonate
  survivor count: 2 of 5 on day 11

## COC1=C(OC)C(=O)C(SC/C=C(\C)CCCC(C)CCCC(C)CCCC(C)C)=CC1=O (stereo not drawn)
dose: 2400.0 mg/kg/injection, schedule: Q04DX003 (ip), vehicle: saline with Tween-80
  survivor count: 2 of 6 on day 11

## CN(C)N=Nc1ccc(C(=O)O)cc1
dose: 800.0 mg/kg/injection, schedule: Q04DX003 (ip), vehicle: saline
  survivor count: 0 of 6 on day 11

## Cc1cc(N)c2ccccc2[n+]1CCCCCCCCCC[n+]1c(C)cc(N)c2ccccc21
dose: 6.0 mg/kg/injection, schedule: Q01DX010 (ip), vehicle: dextrose
  survivor count: 0 of 6 on day 11

## O=C1N[C@H]2[C@H](O)[C@H](O)[C@@H](O)[C@H](O)[C@@H]2c2cc3c(c(O)c21)OCO3
dose: 6.25 mg/kg/injection, schedule: Q04DX003 (ip), vehicle: saline + alcohol
  T/C: 126 % of control
dose: 25.0 mg/kg/injection, schedule: Q04DX003 (ip), vehicle: saline + alcohol
  survivor count: 3 of 6 on day 11
dose: 50.0 mg/kg/injection, schedule: Q04DX003 (ip), vehicle: saline + alcohol
  survivor count: 0 of 6 on day 11

## COC(COC(=O)N1CCN(C=O)CC1)C1=C(N2CC2)C(=O)C(C)=C(N2CC2)C1=O (stereo not drawn)
dose: 24.0 mg/kg/injection, schedule: Q04DX003 (ip), vehicle: saline
  survivor count: 0 of 6 on day 11 and 1 of 6 on day 11

## OC1(CSc2ccccc2)CCCCC1
dose: 1200.0 mg/kg/injection, schedule: Q04DX003 (sc), vehicle: saline with Tween-80
  T/C: 131 % of control
[2]
  T/C: 130 % of control

## N=C(N)c1nn(C2OC(CO)C(O)C2O)c2nc[nH]c(=O)c12 (stereo not drawn)
dose: 20.0 mg/kg/injection, schedule: Q01DX010 (ip), vehicle: Klucel + Tween-80
  survivor count: 3 of 6 on day 11
dose: 40.0 mg/kg/injection, schedule: Q01DX010 (ip), vehicle: Klucel + Tween-80
  survivor count: 0 of 6 on day 11
dose: 60.0 mg/kg/injection, schedule: Q01DX010 (ip), vehicle: Klucel + Tween-80
  survivor count: 0 of 6 on day 11
dose: 80.0 mg/kg/injection, schedule: Q01DX010 (ip), vehicle: Klucel + Tween-80
  survivor count: 0 of 6 on day 11
dose: 200.0 mg/kg/injection, schedule: Q04DX003 (ip), vehicle: distilled water + Tween-80 + alcohol
  survivor count: 0 of 6 on day 11

## Cc1ccc(C(=O)Nc2ccc(S(=O)(=O)O)c3cc(S(=O)(=O)O)cc(S(=O)(=O)O)c23)cc1NC(=O)c1cccc(NC(=O)Nc2cccc(C(=O)Nc3cc(C(=O)Nc4ccc(S(=O)(=O)O)c5cc(S(=O)(=O)O)cc(S(=O)(=O)O)c45)ccc3C)c2)c1
dose: 400.0 mg/kg/injection, schedule: Q04DX003 (ip), vehicle: saline
  survivor count: 2 of 6 on day 11

## CC1(C)N=C(N)N=C(N)N1c1ccc(F)c(C(F)(F)F)c1
dose: 3.12 mg/kg/injection, schedule: Q01DX010 (sc), vehicle: saline
  T/C: 145 % of control

## CC[C@@H](C)[C@H]([C@H](CC(=O)N1CCC[C@@H]1[C@@H](OC)[C@H](C)C(=O)N[C@H](Cc1ccccc1)c1nccs1)OC)N(C)C(=O)[C@H](NC(=O)[C@@H](C(C)C)N(C)C)C(C)C
dose: 13.0 micrograms/kg/injection, schedule: Q04DX003 (ip), vehicle: saline + alcohol
  T/C: 137 % of control
dose: 26.0 micrograms/kg/injection, schedule: Q04DX003 (ip), vehicle: saline + alcohol
  survivor count: 1 of 6 on day 11
dose: 52.0 micrograms/kg/injection, schedule: Q04DX003 (ip), vehicle: saline + alcohol
  survivor count: 0 of 6 on day 11

## Oc1ccc(/C=N/Nc2nnc(N/N=C/c3ccc(O)cc3O)c3ccccc23)c(O)c1
dose: 200.0 mg/kg/injection, schedule: Q04DX003 (ip), vehicle: suspension in saline
  survivor count: 3 of 6 on day 11

## O=C(NC(Cc1ccc(I)cc1)C(=O)O)c1cccc(Br)c1 (stereo not drawn)
dose: 1200.0 mg/kg/injection, schedule: Q04DX003 (ip), vehicle: Klucel (hydroxypropylcellulose) (HPC)
  survivor count: 0 of 6 on day 11

## O=NNc1ccc2cccnc2n1
dose: 150.0 mg/kg/injection, schedule: Q04DX003 (ip), vehicle: other
  survivor count: 1 of 6 on day 11
dose: 300.0 mg/kg/injection, schedule: Q04DX003 (ip), vehicle: other
  survivor count: 0 of 6 on day 11
[3]
  survivor count: 0 of 6 on day 11

## CNC(=O)Sc1ccc(C)c(N(C)C)c1
dose: 600.0 mg/kg/injection, schedule: Q04DX003 (ip), vehicle: saline with Tween-80
  survivor count: 0 of 6 on day 11
dose: 1200.0 mg/kg/injection, schedule: Q04DX003 (ip), vehicle: saline with Tween-80
  survivor count: 0 of 6 on day 11

## Nc1ccc(Cn2ccc3c4c(N)nc(N)nc4ccc32)cc1
dose: 75.0 mg/kg/injection, schedule: Q04DX003 (sc), vehicle: saline with Tween-80
  survivor count: 1 of 6 on day 11
dose: 150.0 mg/kg/injection, schedule: Q04DX003 (sc), vehicle: saline with Tween-80
  survivor count: 0 of 6 on day 11

## CNC(=O)O/N=C(\CN=[N+]=[N-])C(C)(C)C
dose: 5.0 mg/kg/injection, schedule: Q04DX003 (sc), vehicle: saline
  survivor count: 0 of 6 on day 11

## O=C1N[C@@H]2C(=C[C@H](O)[C@@H](O)[C@H]2O)c2cc3c(c(O)c21)OCO3
dose: 2.5 mg/kg/injection, schedule: Q04DX003 (sc), vehicle: saline with Tween-80
  survivor count: 2 of 6 on day 11
dose: 5.0 mg/kg/injection, schedule: Q04DX003 (sc), vehicle: saline with Tween-80
  survivor count: 0 of 6 on day 11
dose: 10.0 mg/kg/injection, schedule: Q04DX003 (sc), vehicle: saline with Tween-80
  survivor count: 0 of 6 on day 11

## CN(C)C(=O)Nc1ccc(Cl)cc1
dose: 1200.0 mg/kg/injection, schedule: Q04DX003 (ip), vehicle: suspension in saline
  survivor count: 1 of 5 on day 11
